Assay results from PubChem BioAssay AID2685 (National Center for Advancing Translational Sciences (NCATS), 2010).
This is one part of the list. Shown are side measurements of this screen, not its main read-out; they come without a call. Compounds called inactive in the main read-out are mostly missing here. Words in brackets tell the shape of the fitted curve; partial curves, single points and poor fits give uncertain potencies.

Test: qHTS Assay for Lipid Storage Modulators in Drosophila S3 Cells;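 for cell number change: cells counted by Cell Tracker Red CMTPX staining in the red channel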
Settings: BODIPY lipid droplet fluorescence, 18-24 h; for cell number change: measured here: cell count max response, cells fed with added oleic acid
Procedure, shortened: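 Drosophila S3 cells loaded with oleic acid (400 uM, as added) and compounds at several concentrations; lipid droplets imaged by 488-nm laser-scanning cytometry, 500–530 nm intensity and object ratio to cell channel. Percent activity normalized to 20 uM Triacsin C.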

[1] = measured here: cell number channel AC50, cells fed with added oleic acid
[2] = measured here: lipid fluorescence (Fed channel) AC50, cells fed with added oleic acid

| SMILES | cell number change [%] | AC50 [1] | AC50 [2] |
| --- | --- | --- | --- |
| Cc1ccc(S(=O)(=O)N2CC3CCCN3c3ccc(C(F)(F)F)cc32)cc1 (configuration not stated) | 34.7 | 29.1 µM [rising, single point] | – |
| O=C(COc1ccc(-c2nnco2)cc1)Nc1c(F)cccc1F | 1.15 | – | 18.4 µM [rising, single point] |
| O=C(Nc1ccc2c(c1)OCO2)c1ccc2c(c1)OCO2 | 73.7 | 0.00461 µM [rising, full curve, poor fit] | 6.51 µM [rising, single point] |
| CCOc1ccccc1NC(=O)CCCNC(=O)c1ccc(Cl)cc1 | 2.78 | – | – |
| CCC1CCCCN1S(=O)(=O)Cc1ccccc1Cl (configuration not stated) | -44.4 | – | – |
| COc1ccccc1CNC(=O)c1cc(C2CC2)nc2c1cnn2C(C)C | -38.8 | 29.1 µM [falling, single point] | 16.4 µM [falling, single point] |
| COc1cc(/C=N/NC(=O)COc2ccccc2C)ccc1OC(=O)c1cccs1 | 38.7 | – | – |
| N#Cc1ccccc1OCCn1cncn1 | -2.36 | – | – |
| CC(C)C[C@H](NC(=O)OC(C)(C)C)C(=O)N[C@@H](CO)[C@H](O)[C@@H]1C[C@@H]1C(=O)NC1CC1 | 23.6 | – | – |
| CCOc1ccccc1N(CC(=O)NC1CCCCC1)C(=O)CCC(=O)Nc1nccs1 | -7.62 | – | 6.51 µM [rising, single point] |
| COc1cccc(CNC(=O)c2cc3oc4ccccc4c3n2C)c1OC | 3.36 | – | 7.31 µM [rising, partial curve] |
| CCOC(=O)c1ccc(Cn2cnc3ccccc3c2=O)cc1 | – | 0.326 µM [rising, full curve] | 6.51 µM [rising, partial curve] |
| CCc1nc(C(N)=O)c2[nH]c(=O)n(-c3ccccc3F)c2n1 | 6.42 | – | – |
| CCO[C@H]1c2c(ccc3ccc(=O)oc23)OC(C)(C)[C@@H]1O | 2.89 | – | – |
| O=C(COC(=O)c1ccccc1)Nc1cccc(S(=O)(=O)N2CCCCC2)c1 | -23.1 | – | 0.13 µM [rising, full curve, poor fit] |
| Cc1cc(C)nc(N/N=C/c2ccccc2)n1 | 3.27 | – | 29.1 µM [falling, single point] |
| O=C(Nc1cccc(-c2cn3ccsc3n2)c1)c1ccccc1 | 2.65 | – | 0.00461 µM [falling, full curve, poor fit] |
| Cc1c(Cl)cccc1NC(=O)CN1CCC(C(O)(c2ccccc2)c2ccccc2)CC1 | -16.7 | – | – |
| Cc1cc(=O)[nH]c(SCc2cccc(Br)c2)n1 | -32.6 | 20.6 µM [falling, single point] | – |
| COC(=O)c1ccccc1N(C)S(C)(=O)=O | -38.5 | – | 29.1 µM [falling, single point] |
| CCOC(=O)c1c(C)[nH]c(C(=O)COC(=O)CN2C(=O)C3CCCCC3C2=O)c1C (configuration not stated) | -16.4 | – | 1.16 µM [falling, partial curve] |

| SMILES | cell number change [%] | AC50 [1] | AC50 [2] |
| --- | --- | --- | --- |
| O=C(CN1CCCN(Cc2ccc(F)cc2Cl)C1=O)NC1CCCC1 | 15.3 | – | 0.291 µM [rising, full curve, poor fit] |
| COC(=O)/C=C(\C)NC(=O)c1ccc(F)cc1 | 191 | 29.1 µM [rising, single point] | – |
| CCN(CC)S(=O)(=O)c1ccc(Cl)c(C(=O)NC(C)C(c2cccs2)N2CCCC2)c1 (configuration not stated) | – | 5.8 µM [rising, partial curve, poor fit] | – |
| COc1ccc(CCNC(=O)COC(=O)C2CC2C)cc1 (configuration not stated) | 4.76 | – | 18.4 µM [rising, partial curve] |
| O=C(CSc1nnc2ccc(-c3ccccn3)nn12)Nc1ccccc1 | 23 | – | 0.116 µM [rising, full curve] |
| CC1CC(C)CN(C(=O)Cn2c(=O)oc3cc(S(=O)(=O)N4CCCC4)ccc32)C1 (configuration not stated) | -14.3 | – | – |
| COc1cc(NC(=O)CN2CCCCCC2)cc(OC)c1 | -5.56 | – | 6.51 µM [rising, partial curve, poor fit] |
| CC(c1ccco1)N(C(=O)C12CC3CC(CC(C)(C3)C1)C2)c1ccccn1 (configuration not stated) | -18.3 | – | 0.58 µM [rising, single point] |
| CCCC(=O)Nc1nc2nc(-c3ccccc3)cc(-c3ccccc3)n2n1 | – | – | 32.6 µM [falling, single point] |
| Cc1onc(-c2ccccc2)c1C(=O)N1CCCCCC1 | -1.47 | – | – |
| C/C(=N\NC(=O)c1cccc(S(=O)(=O)Nc2ccc(C)cc2C)c1)c1ccncc1 | – | 0.13 µM [rising, full curve] | – |
| COCCOC(=O)c1nccnc1C(=O)Nc1ccc(S(=O)(=O)N2CCOCC2)cc1 | -40.5 | 29.1 µM [falling, single point] | 1.84 µM [rising, partial curve] |
| O=C(CCc1nnc2ccc(NCc3ccco3)nn12)Nc1ccccc1F | -40.2 | 0.0259 µM [falling, full curve, poor fit] | – |
| O=C1c2ccccc2C(=O)N1CCC1=CCCCC1 | -12.7 | – | – |
| Cc1cc(=O)oc2cc(NC(=O)c3cc([N+](=O)[O-])ccc3N3CCOCC3)ccc12 | 37.3 | 0.0259 µM [rising, full curve, poor fit] | 0.651 µM [rising, full curve] |
| CC(C(=O)Nc1ccc(C#N)cc1)N(C)CC(=O)Nc1ccccc1Br (configuration not stated) | 81.1 | 16.4 µM [rising, single point] | 16.4 µM [rising, single point] |
| Cc1ccc2cc(C#N)c(N3CCCC3)nc2c1C | – | 0.731 µM [falling, single point] | – |
| COc1cccc(CC(=O)Nc2ccc3c(c2)CCC3)c1 | -3.95 | – | 3.55 µM [falling, full curve, poor fit] |
| O=C(O)c1ccc(/C=C2\SC(=S)N(NC(=O)c3ccccc3[N+](=O)[O-])C2=O)cc1 | 12.6 | – | 2.91 µM [rising, partial curve] |
| CCOC(=O)c1c(NC(=O)CSc2nnc(-c3ccncc3)n2Cc2ccco2)sc(C)c1C | 0.482 | 0.291 µM [rising, partial curve] | 0.58 µM [rising, partial curve] |
| O=C(Nc1ccc(N2CCCCC2)cc1)c1cccnc1Cl | -5.26 | – | 29.1 µM [falling, single point] |

| SMILES | cell number change [%] | AC50 [1] | AC50 [2] |
| --- | --- | --- | --- |
| CCOc1ccc(CCNC(=O)c2cccc(-n3cnnn3)c2)cc1OCC | – | – | 0.0651 µM [falling, full curve] |
| O=C(CNC(=O)c1ccc(Cl)cc1)OCn1nnc2ccccc2c1=O | -6.73 | – | 2.91 µM [rising, partial curve, poor fit] |
| CC(=O)N1CCc2cc(Br)cc(S(=O)(=O)N3CCN(C(=O)c4ccco4)CC3)c21 | -1.84 | – | 0.00517 µM [falling, full curve, poor fit] |
| CCC(=O)Nc1c(-c2ccc(Cl)cc2)c(=O)c2ccccc2n1C | – | 2.06 µM [falling, partial curve, poor fit] | – |
| NS(=O)(=O)c1cccc(NC(=O)CSc2nc3ccccc3n2-c2ccccc2)c1 | -17.8 | – | 29.1 µM [falling, single point] |
| CCn1c(=O)c2c(nc3n2CCCN3Cc2ccccc2)n(C)c1=O | 13.8 | – | 5.17 µM [rising, single point] |
| COc1ccc(C(c2c(O)cc(C)oc2=O)c2c(O)cc(C)oc2=O)cc1 | -43.9 | 1.16 µM [falling, partial curve, poor fit] | – |
| COCCN(C(=O)COC(=O)CCc1ccc(OC)cc1)c1c(N)n(Cc2ccccc2)c(=O)[nH]c1=O | -6.74 | 0.731 µM [falling, full curve, poor fit] | 5.8 µM [falling, partial curve, poor fit] |
| COC(=O)c1c(NC(C)=O)sc(Cc2ccccc2)c1C | -7.47 | – | – |
| COc1ccc(S(=O)(=O)N2CCCC(C(=O)NCC3CCCO3)C2)cc1OC (configuration not stated) | – | – | 0.291 µM [rising, single point] |
| O=C(CN1CCN(Cc2ccccc2Cl)C1=O)NCCCN1CCOCC1 | 7.1 | – | – |
| C=CCN(CC=C)S(=O)(=O)c1ccc2nc(NC(=O)C(C)C)sc2c1 | 16.4 | 2.91 µM [rising, single point] | 4.11 µM [rising, partial curve] |
| Cc1noc(C)c1C(=O)N1CCN(C(=O)c2sc3cc(Cl)ccc3c2Cl)CC1 | – | 0.58 µM [rising, full curve] | 0.82 µM [rising, full curve] |
| CCc1ccc(-c2cc(C(=O)NCc3ccco3)c3ccccc3n2)s1 | 1.35 | – | 29.1 µM [falling, single point] |
| COC(=O)C1=C(C)NC(C)=C(C(=O)OC)C1C(=O)OCc1nnc(-c2ccccc2Cl)o1 | -95.9 | 32.6 µM [falling, partial curve] | 5.17 µM [falling, partial curve] |
| C/C(=N\NC(=O)c1ccccc1NC(=O)c1ccc(Cl)cc1)c1ccncc1 | 11.6 | – | 0.00461 µM [rising, full curve, poor fit] |
| CC(C)N=C(NS(=O)(=O)NC(=O)c1ccccc1)c1ccccc1 | 14.5 | 6.51 µM [falling, single point] | 6.51 µM [falling, single point] |
| COC(=O)C1=CN(c2ccc(Cl)cc2)C=C(C(=O)OC)C1c1ccc([N+](=O)[O-])cc1 | 21.1 | – | 6.51 µM [rising, single point] |
| C=CCNC(=S)NNC(=O)c1ccc(OC(C)C)cc1 | – | 1.16 µM [rising, full curve] | 1.03 µM [rising, full curve] |

Part of the list above in order of molar mass, low to high.

| SMILES | cell number change [%] | AC50 [1] | AC50 [2] |
| --- | --- | --- | --- |
| C=CCNC(=S)NNC(=O)c1ccc(OC(C)C)cc1 | – | 1.16 µM [rising, full curve] | 1.03 µM [rising, full curve] |
| COC(=O)c1c(NC(C)=O)sc(Cc2ccccc2)c1C | -7.47 | – | – |
| O=C(Nc1ccc(N2CCCCC2)cc1)c1cccnc1Cl | -5.26 | – | 29.1 µM [falling, single point] |
| CCn1c(=O)c2c(nc3n2CCCN3Cc2ccccc2)n(C)c1=O | 13.8 | – | 5.17 µM [rising, single point] |
| CCC(=O)Nc1c(-c2ccc(Cl)cc2)c(=O)c2ccccc2n1C | – | 2.06 µM [falling, partial curve, poor fit] | – |
| O=C(CNC(=O)c1ccc(Cl)cc1)OCn1nnc2ccccc2c1=O | -6.73 | – | 2.91 µM [rising, partial curve, poor fit] |
| C=CCN(CC=C)S(=O)(=O)c1ccc2nc(NC(=O)C(C)C)sc2c1 | 16.4 | 2.91 µM [rising, single point] | 4.11 µM [rising, partial curve] |
| CCOc1ccc(CCNC(=O)c2cccc(-n3cnnn3)c2)cc1OCC | – | – | 0.0651 µM [falling, full curve] |
| C/C(=N\NC(=O)c1ccccc1NC(=O)c1ccc(Cl)cc1)c1ccncc1 | 11.6 | – | 0.00461 µM [rising, full curve, poor fit] |
| O=C(CN1CCN(Cc2ccccc2Cl)C1=O)NCCCN1CCOCC1 | 7.1 | – | – |
| COc1ccc(S(=O)(=O)N2CCCC(C(=O)NCC3CCCO3)C2)cc1OC (configuration not stated) | – | – | 0.291 µM [rising, single point] |
| COC(=O)C1=CN(c2ccc(Cl)cc2)C=C(C(=O)OC)C1c1ccc([N+](=O)[O-])cc1 | 21.1 | – | 6.51 µM [rising, single point] |
| Cc1noc(C)c1C(=O)N1CCN(C(=O)c2sc3cc(Cl)ccc3c2Cl)CC1 | – | 0.58 µM [rising, full curve] | 0.82 µM [rising, full curve] |
| NS(=O)(=O)c1cccc(NC(=O)CSc2nc3ccccc3n2-c2ccccc2)c1 | -17.8 | – | 29.1 µM [falling, single point] |
| COC(=O)C1=C(C)NC(C)=C(C(=O)OC)C1C(=O)OCc1nnc(-c2ccccc2Cl)o1 | -95.9 | 32.6 µM [falling, partial curve] | 5.17 µM [falling, partial curve] |
| CC(=O)N1CCc2cc(Br)cc(S(=O)(=O)N3CCN(C(=O)c4ccco4)CC3)c21 | -1.84 | – | 0.00517 µM [falling, full curve, poor fit] |
| COCCN(C(=O)COC(=O)CCc1ccc(OC)cc1)c1c(N)n(Cc2ccccc2)c(=O)[nH]c1=O | -6.74 | 0.731 µM [falling, full curve, poor fit] | 5.8 µM [falling, partial curve, poor fit] |
